Experimental data: patent US20220372484A1
For part of these data: Results from cells or extracts need not show a direct contact. Protein sequences can lack the tags named with them.

Key:
[1] = molecular target: T1, FPR2 (formyl peptide receptor 2) (Homo sapiens) (UniProt P25090); experiment: binding assay; conditions: cell binding by qPCR Ct, HaCaT-FPR2-GFP, 20 pmol, 30 min 37 C; among the highest-affinity aptamers; colocalizes with FPR2-GFP; protein on the cell surface; label: AlexaFluor 700 (colocalization assay only); single-stranded DNA
T1 sequence: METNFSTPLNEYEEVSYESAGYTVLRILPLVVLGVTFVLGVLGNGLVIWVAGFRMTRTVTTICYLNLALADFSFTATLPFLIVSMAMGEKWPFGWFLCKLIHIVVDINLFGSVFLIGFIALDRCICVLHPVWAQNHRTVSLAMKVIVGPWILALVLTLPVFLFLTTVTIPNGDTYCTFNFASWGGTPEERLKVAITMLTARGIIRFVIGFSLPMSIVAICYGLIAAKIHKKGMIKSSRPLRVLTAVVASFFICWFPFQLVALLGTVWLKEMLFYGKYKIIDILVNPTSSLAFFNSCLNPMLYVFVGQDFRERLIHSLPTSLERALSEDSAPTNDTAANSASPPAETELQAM

[2] = molecular target: T1, FPR2 (formyl peptide receptor 2) (Homo sapiens); experiment: activity in cells; conditions: agonist; inhibition of forskolin-mediated cAMP production (CRE-luciferase), 1 uM aptamer, 293 FPR2-GFP cells; LL37 5 uM gives 46%; protein on the cell surface; single-stranded DNA

Sequence | binding result [1] | functional effect of the aptamer [2]
GCGGATGAAGACTGGTGTGGGCGGGGGTCTTAGGCTGTACGGGGCTGTTCAGGTGCTTGCCCTAAATACGAGCAAC [ApFP3.5a] | binds | active
GCGGATGAAGACTGGTGTGGGGATCAGGAACTCTGAAATGGCAGTCTATGTTTCAATGGCCCTAAATACGAGCAAC [ApFP3.8a] | binds | active
GCGGATGAAGACTGGTGTTGTGGCGCTTCGGGCCTGTCCCTTTATATCCGTAGATTGAGCCCTAAATACGAGCAAC [ApFP4.5b] | binds | active
